Values of other authors in US20090176857A1, “Use of Organic Compounds” (priority 2005, published 2009).
At least one structure is not confirmed: it was looked up by name or label, or the drawing left a doubt.

Tested on: mixed-symptom (alternating) irritable bowel syndrome
Conditions: literature abstract; cited from earlier work

Compound: COc1cc(N)c(Cl)cc1C(=O)NC1CCN2CCCC1C2 (stereo not shown) [renzapride]
- improvements in IBS symptoms: did not demonstrate statistically significant improvements in IBS symptoms
